Test results taken from patent US6517846B2, “Cosmetic composition” (Kyowa Hakko Kogyo Co., Ltd., priority 2000, dated 2003).

Tested on: human subjects (washing hands)
Conditions: mean n = 5; for Foaming power (during use), average score: grades 1-5 scored −5, −1.5, 0, 1.5, 5, 1 Very little; for Foaming power (during use), average score / Foam breakage (after use), average score: 5 Excellent; for Feeling after use, average score / Wash feeling (during use), average score / Satisfaction rating, average score / Texture in foams (during use), average score / Feeling of foams (during use), average score / Foam breakage (after use), average score / Odor (after use), average score / Odor (during use), average score: grades scored −5 to 5; for Feeling after use, average score: 1 Dry, 5 Moist; for Wash feeling (during use), average score: 1 Frictional, 5 Smooth; for Satisfaction rating, average score: 1 Not preferred for use, 5 Preferred for use; for Texture in foams (during use), average score: 1 Rough, 5 Very fine; for Feeling of foams (during use), average score: 1 Soft (Light), 5 Creamy (Heavy); for Foam breakage (after use), average score: 1 Unsatisfactory; for Odor (after use), average score / Odor (during use), average score: 1 Very strong, 5 Very light

CCCCCCCCCCCC(=O)NCCC(=O)O [LBA, sodium salt of lauroyl β-alanine]
Foaming power (during use), average score: −2.4 | Feeling after use, average score: 0.6 | Wash feeling (during use), average score: 0.6 | Satisfaction rating, average score: −0.6 | Texture in foams (during use), average score: −2.4 | Feeling of foams (during use), average score: −1.8 | Foam breakage (after use), average score: −1.2 | Odor (after use), average score: 1.2 | Odor (during use), average score: −1.2

Triethanolamine N-Cocoyl-L-glutaminate [GMT]
Foaming power (during use), average score: 1.5 | Feeling after use, average score: −0.9 | Wash feeling (during use), average score: 1.8 | Satisfaction rating, average score: 0 | Texture in foams (during use), average score: −0.3 | Feeling of foams (during use), average score: −1.2 | Foam breakage (after use), average score: −0.6 | Odor (after use), average score: 1.2 | Odor (during use), average score: 0.9

triethanolamine N-cocoyl glutamate [GAT]
Foaming power (during use), average score: 2.4 | Feeling after use, average score: 0 | Wash feeling (during use), average score: 1.2 | Satisfaction rating, average score: −1.2 | Texture in foams (during use), average score: 1.5 | Feeling of foams (during use), average score: 0.6 | Foam breakage (after use), average score: 1.2 | Odor (after use), average score: −1.8 | Odor (during use), average score: −1.8

Structures can show the parent of a compound that is named as a salt.
